These are yes or no findings as the source states them, for the method shown. Some results given as binding are weak or reduced against the parent protein; the word gives no strength.

The chains behind the UniProt entries cited, without tags or fusion partners. Where a name states a change or a piece, a line headed by the entry shows the natural chain unless it says otherwise.
UniProt P07766: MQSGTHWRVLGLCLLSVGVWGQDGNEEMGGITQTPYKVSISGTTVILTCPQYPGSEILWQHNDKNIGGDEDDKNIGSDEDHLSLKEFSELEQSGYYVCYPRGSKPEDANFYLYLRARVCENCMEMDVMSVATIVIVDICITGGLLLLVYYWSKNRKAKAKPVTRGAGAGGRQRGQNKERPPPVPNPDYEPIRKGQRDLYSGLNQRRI
UniProt P20138: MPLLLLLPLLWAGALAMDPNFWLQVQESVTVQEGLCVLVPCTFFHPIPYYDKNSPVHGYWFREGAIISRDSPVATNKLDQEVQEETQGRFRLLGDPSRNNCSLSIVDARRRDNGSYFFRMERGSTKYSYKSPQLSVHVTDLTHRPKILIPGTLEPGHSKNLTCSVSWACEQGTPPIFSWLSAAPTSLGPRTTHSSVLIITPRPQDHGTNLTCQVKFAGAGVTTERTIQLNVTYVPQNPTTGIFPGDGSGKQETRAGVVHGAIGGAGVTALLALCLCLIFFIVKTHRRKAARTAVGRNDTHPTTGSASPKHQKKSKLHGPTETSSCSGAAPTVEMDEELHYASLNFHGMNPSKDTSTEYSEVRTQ
UniProt P26951: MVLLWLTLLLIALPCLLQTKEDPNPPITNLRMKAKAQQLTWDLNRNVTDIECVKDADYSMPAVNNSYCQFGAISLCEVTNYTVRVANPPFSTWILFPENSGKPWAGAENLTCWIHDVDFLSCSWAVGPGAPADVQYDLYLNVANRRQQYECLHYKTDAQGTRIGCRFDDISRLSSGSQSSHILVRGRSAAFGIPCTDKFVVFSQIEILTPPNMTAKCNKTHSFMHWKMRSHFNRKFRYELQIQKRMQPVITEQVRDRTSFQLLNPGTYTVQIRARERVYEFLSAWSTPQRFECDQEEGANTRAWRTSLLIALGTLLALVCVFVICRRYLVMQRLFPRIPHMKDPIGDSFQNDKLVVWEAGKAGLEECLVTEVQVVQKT
UniProt P32970: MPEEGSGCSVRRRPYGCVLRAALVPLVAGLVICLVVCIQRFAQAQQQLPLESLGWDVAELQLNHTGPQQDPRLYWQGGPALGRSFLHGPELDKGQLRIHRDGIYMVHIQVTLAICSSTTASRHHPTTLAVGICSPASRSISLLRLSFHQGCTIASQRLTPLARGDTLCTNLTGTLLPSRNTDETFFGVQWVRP

B1: DARPin® protein #8 (designed binder)
chain: DLGKKLLEAARAGQDDEVRILMANGADVNALDWLGHTPLHLAAYEGHLEIVEVLLKNGADVNAIDDNNGFTPLHLAAIDGHLEIVEVLLKNGADVNAQDKFGKTAFDISIDNGNEDLAEILQKAAGSPTPTPTTPTPTPTTPTPTPTGSDLGDKLLLAATSGQDDEVRILLAAGADVNAKDYDGDTPLHLAADEGHLEIVEVLLKAGADVNAKDYSGSTPLHAAAAYGHLEIVEVLLKAGADVNAQDVFGYTPADLAAYVGHEDIAEVLQKAAGSPTPTPTTPTPTPTTPTPTPTGSDLGQKLLEAAWAGQDDEVRELLKAGADVNAKNSRGWTPLHTAAQTGHLEIFEVLLKAGADVNAKDDKGVTPLHLAAALGHLEIVEVLLKAGADVNAQDSWGTTPADLAAKYGHEDIAEVLQKAA
notes: CD123-CD33-CD3 ankyrin repeat protein, no half-life extension; also called DARPin® #8; not shown: N-terminal His-tag
B2: DARPin® protein #59 (designed binder)
chain: DLGKKLLEAARAGQDDEVRELLKAGADVNAKDYFSHTPLHLAARNGHLKIVEVLLKAGADVNAKDFAGKTPLHLAAADGHLEIVEVLLKAGADVNAQDIFGKTPADIAADAGHEDIAEVLQKAAGSPTPTPTTPTPTPTTPTPTPTGSDLGKKLLEAARAGQDDEVRELLKAGADVNAKDYFSHTPLHLAARNGHLKIVEVLLKAGADVNAKDFAGKTPLHLAAADGHLEIVEVLLKAGADVNAQDIFGKTPADIAADAGHEDIAEVLQKAAGSPTPTPTTPTPTPTTPTPTPTGSDLGIKLLTAAYDGQLDEVRILLKAGADVNAKDLRGQTPLHYAAGLGHLEIVEVLLKAGADVNAKDLHGWTPLHLAAWSGHLEIVEVLLKAGADVNAQDVEGVTPADLAAVQGHQDIAEVLQKAAGSPTPTPTTPTPTPTTPTPTPTGSDLGKKLLEAALEGQLDEVRELLKAGADVNAKDQEGYTPLHLAAALGHLEIVEVLLKAGADVNAKDQIGRTPLHLAAYKGHLEIVEVLLKAGADVNAQDIIGQTPADLAAQRGHQDIAEVLQKAAGSPTPTPTTPTPTPTTPTPTPTGSDLGVKLLLAAERGQLDEVRILLKAGADVNAKDIAEGYTPLHIAAYQGHLEIVEVLLKAGADVNAKDRYGKTPLHLAAIGGHLEIVEVLLKAGADVNAQDNKGSTPADLAADYGHQDIAEVLQKAAGSPTGSDLGQKLLEAAWAGQDDEVRELLKAGADVNAKNSRGWTPLHTAAQTGHLEIFEVLLKAGADVNAKNDKRVTPLHLAAALGHLEIVEVLLKAGADVNARDSWGTTPADLAAKYGHQDIAEVLQKAA
notes: HSA-HSA-CD70-CD123-CD33-CD3
B3: DARPin® protein #57 (designed binder)
chain: DLGKKLLEAARAGQDDEVRELLKAGADVNAKDYFSHTPLHLAARNGHLKIVEVLLKAGADVNAKDFAGKTPLHLAAADGHLEIVEVLLKAGADVNAQDIFGKTPADIAADAGHEDIAEVLQKAAGSPTPTPTTPTPTPTTPTPTPTGSDLGKKLLEAARAGQDDEVRELLKAGADVNAKDYFSHTPLHLAARNGHLKIVEVLLKAGADVNAKDFAGKTPLHLAAADGHLEIVEVLLKAGADVNAQDIFGKTPADIAADAGHEDIAEVLQKAAGSPTPTPTTPTPTPTTPTPTPTGSDLGIKLLTAAYDGQLDEVRILLKAGADVNAKDLRGQTPLHYAAGLGHLEIVEVLLKAGADVNAKDLHGWTPLHLAAWSGHLEIVEVLLKAGADVNAQDVEGVTPADLAAVQGHQDIAEVLQKAAGSPTPTPTTPTPTPTTPTPTPTGSDLGKKLLQAALEGQLDEVRELLKAGADVNAKDIEGYTPLHLAAALGHLEIVEVLLKAGADVNAKDQIGRTPLHLAAYKGHLEIVEVLLKAGADVNAQDIIGQTPADLAAQRGHQDIAEVLQKAAGSPTPTPTTPTPTPTTPTPTPTGSDLGKKLLLAAERGQLDEVRILLKAGADVNAKDRAEGYTPLHIAAYQGHLEIVEVLLKAGADVNAKDRYGKTPLHLAAISGHLEIVEVLLKAGADVNAQDNKGSTPADLAADYGHQDIAEVLQKAAGSPTGSDLGQKLLEAAWAGQDDEVRELLKAGADVNAKNSRGWTPLHTAAQTGHLEIFEVLLKAGADVNAKNDKRVTPLHLAAALGHLEIVEVLLKAGADVNARDSWGTTPADLAAKYGHQDIAEVLQKAA
notes: HSA-HSA-CD70-CD123-CD33-CD3; not shown: N-terminal His-tag
B4: DARPin® protein #58 (designed binder)
chain: DLGKKLLEAARAGQDDEVRELLKAGADVNAKDYFSHTPLHLAARNGHLKIVEVLLKAGADVNAKDFAGKTPLHLAAADGHLEIVEVLLKAGADVNAQDIFGKTPADIAADAGHEDIAEVLQKAAGSPTPTPTTPTPTPTTPTPTPTGSDLGKKLLEAARAGQDDEVRELLKAGADVNAKDYFSHTPLHLAARNGHLKIVEVLLKAGADVNAKDFAGKTPLHLAAADGHLEIVEVLLKAGADVNAQDIFGKTPADIAADAGHEDIAEVLQKAAGSPTPTPTTPTPTPTTPTPTPTGSDLGIKLLTAAYDGQLDEVRILLKAGADVNAKDLRGQTPLHYAAGLGHLEIVEVLLKAGADVNAKDLHGWTPLHLAAWSGHLEIVEVLLKAGADVNAQDVEGVTPADLAAVQGHQDIAEVLQKAAGSPTPTPTTPTPTPTTPTPTPTGSDLGWKLLDAAEIGQLDEVRILLKAGADVNAKDKQGITPLHIAAAHGHLEIVEVLLKAGADVNAKDEIGRTPLHLAAFKGHLEIVEVLLKAGADVNAQDIIGETPADLAAVRGHQDIAEVLQKAAGSPTPTPTTPTPTPTTPTPTPTGSDLGVKLLLAAERGQLDEVRILLKAGADVNAKDIAEGYTPLHIAAYQGHLEIVEVLLKAGADVNAKDRYGKTPLHLAAIGGHLEIVEVLLKAGADVNAQDNKGSTPADLAADYGHQDIAEVLQKAAGSPTGSDLGQKLLEAAWAGQDDEVRELLKAGADVNAKNSRGWTPLHTAAQTGHLEIFEVLLKAGADVNAKNDKRVTPLHLAAALGHLEIVEVLLKAGADVNARDSWGTTPADLAAKYGHQDIAEVLQKAA
notes: HSA-HSA-CD70-CD123-CD33-CD3
B5: DARPin® protein #62 (designed binder)
chain: DLGKKLLEAARAGQDDEVRELLKAGADVNAKDYFSHTPLHLAARNGHLKIVEVLLKAGADVNAKDFAGKTPLHLAAADGHLEIVEVLLKAGADVNAQDIFGKTPADIAADAGHEDIAEVLQKAAGSPTPTPTTPTPTPTTPTPTPTGSDLGKKLLEAARAGQDDEVRELLKAGADVNAKDYFSHTPLHLAARNGHLKIVEVLLKAGADVNAKDFAGKTPLHLAAADGHLEIVEVLLKAGADVNAQDIFGKTPADIAADAGHEDIAEVLQKAAGSPTPTPTTPTPTPTTPTPTPTGSDLGIKLLTAAYDGQLDEVRILLKAGADVNAKDLRGQTPLHYAAGLGHLEIVEVLLKAGADVNAKDLHGWTPLHLAAWSGHLEIVEVLLKAGADVNAQDVEGVTPADLAAVQGHQDIAEVLQKAAGSPTPTPTTPTPTPTTPTPTPTGSDLGVKLLLAAERGQLDEVRILLKAGADVNAKDIAEGYTPLHIAAYQGHLEIVEVLLKAGADVNAKDRYGKTPLHLAAIGGHLEIVEVLLKAGADVNAQDNKGSTPADLAADYGHQDIAEVLQKAAGSPTPTPTTPTPTPTTPTPTPTGSDLGKKLLEAALEGQLDEVRELLKAGADVNAKDQEGYTPLHLAAALGHLEIVEVLLKAGADVNAKDQIGRTPLHLAAYKGHLEIVEVLLKAGADVNAQDIIGQTPADLAAQRGHQDIAEVLQKAAGSPTPTPTTPTPTPTTPTPTPTGSDLGQKLLEAAWAGQDDEVRELLKAGADVNAKNSRGWTPLHTAAQTGHLEIFEVLLKAGADVNAKNDKRVTPLHLAAALGHLEIVEVLLKAGADVNARDSWGTTPADLAAKYGHQDIAEVLQKAA
notes: HSA-HSA-CD70-CD33-CD123-CD3
B6: DARPin® protein #61 (designed binder)
chain: DLGKKLLEAARAGQDDEVRELLKAGADVNAKDYFSHTPLHLAARNGHLKIVEVLLKAGADVNAKDFAGKTPLHLAAADGHLEIVEVLLKAGADVNAQDIFGKTPADIAADAGHEDIAEVLQKAAGSPTPTPTTPTPTPTTPTPTPTGSDLGKKLLEAARAGQDDEVRELLKAGADVNAKDYFSHTPLHLAARNGHLKIVEVLLKAGADVNAKDFAGKTPLHLAAADGHLEIVEVLLKAGADVNAQDIFGKTPADIAADAGHEDIAEVLQKAAGSPTPTPTTPTPTPTTPTPTPTGSDLGKKLLQAARAGQLDEVRELLKAGADVNAKDQQGLTPLHIAANLGHLEIVEVLLKAGADVNAKDLFGLTPLHLAAFEGHLEIVEVLLKAGADVNAKDQHGATPLHLAAWVGHLEIVEVLLKAGADVNAQDKSGKTPADLAARAGHQDIAEVLQKAAGSPTPTPTTPTPTPTTPTPTPTGSDLGKKLLQAALEGQLDEVRELLKAGADVNAKDIEGYTPLHLAAALGHLEIVEVLLKAGADVNAKDQIGRTPLHLAAYKGHLEIVEVLLKAGADVNAQDIIGQTPADLAAQRGHQDIAEVLQKAAGSPTPTPTTPTPTPTTPTPTPTGSDLGKKLLLAAERGQLDEVRILLKAGADVNAKDRAEGYTPLHIAAYQGHLEIVEVLLKAGADVNAKDRYGKTPLHLAAISGHLEIVEVLLKAGADVNAQDNKGSTPADLAADYGHQDIAEVLQKAAGSPTGSDLGQKLLEAAWAGQDDEVRELLKAGADVNAKNSRGWTPLHTAAQTGHLEIFEVLLKAGADVNAKNDKRVTPLHLAAALGHLEIVEVLLKAGADVNARDSWGTTPADLAAKYGHQDIAEVLQKAA
notes: HSA-HSA-CD70-CD123-CD33-CD3
B7: DARPin® protein #60 (designed binder)
chain: DLGKKLLEAARAGQDDEVRELLKAGADVNAKDYFSHTPLHLAARNGHLKIVEVLLKAGADVNAKDFAGKTPLHLAAADGHLEIVEVLLKAGADVNAQDIFGKTPADIAADAGHEDIAEVLQKAAGSPTPTPTTPTPTPTTPTPTPTGSDLGKKLLEAARAGQDDEVRELLKAGADVNAKDYFSHTPLHLAARNGHLKIVEVLLKAGADVNAKDFAGKTPLHLAAADGHLEIVEVLLKAGADVNAQDIFGKTPADIAADAGHEDIAEVLQKAAGSPTPTPTTPTPTPTTPTPTPTGSDLGIKLLTAAYDGQLDEVRILLKAGADVNAKDLRGQTPLHYAAGLGHLEIVEVLLKAGADVNAKDLHGWTPLHLAAWSGHLEIVEVLLKAGADVNAQDVEGVTPADLAAVQGHQDIAEVLQKAAGSPTPTPTTPTPTPTTPTPTPTGSDLGKKLLQAARAGQLDEVRELLKAGADVNAKDQYGRTPLHLAAIKGHLEIVEVLLKAGADVNAKDSLGYTPLHLAAVEGPLEIVEVLLKAGADVNAKDAYGQTPLHIAAAWGHLEIVEVLLKAVADVNAQDKSGKTPADLAARAGHQDIAEVLQKAAGSPTPTPTTPTPTPTTPTPTPTGSDLGVKLLLAAERGQLDEVRILLKAGADVNAKDIAEGYTPLHIAAYQGHLEIVEVLLKAGADVNAKDRYGKTPLHLAAIGGHLEIVEVLLKAGADVNAQDNKGSTPADLAADYGHQDIAEVLQKAAGSPTGSDLGQKLLEAAWAGQDDEVRELLKAGADVNAKNSRGWTPLHTAAQTGHLEIFEVLLKAGADVNAKNDKRVTPLHLAAALGHLEIVEVLLKAGADVNARDSWGTTPADLAAKYGHQDIAEVLQKAA
notes: HSA-HSA-CD70-CD123-CD33-CD3

In one assay the target is T1, human CD3 on primary human pan-T cells (human, UniProt P07766 23-207; P09693 23-182; P04234 22-171; P20963 22-164).
T1 construct: whole, on cells; Native complex on T cells isolated from PBMC; also called CD3 on Pan-T cells
Put plainly: Mirrorball laser scanning cytometry on primary human pan-T cells, anti-penta-His Alexa Fluor 488 detection, 600 µM HSA.
In the case of B1, the binding entry is recorded as “binds”.

The target of a further assay is Molm-13 N1 tumor cells (carrying CD123, CD33 and CD70) (human) (UniProt P20138+P26951+P32970). Put plainly: flow cytometry on Molm-13 N1 cells, anti-DARPin rabbit antibody and Alexa Fluor 647 secondary antibody, 20 µM HSA. On the technique in general: Flow cytometry measures light scatter and fluorescence of single cells or particles in a stream.
B2: the binding entry is on record as “binds”.

B3: the binding entry is on record as “binds”.

Turning to B4, the binding entry was “binds”.

Turning to B5, the binding entry is recorded as “binds”.

In the case of B6, the binding result is “binds”.

For the molecule B7, the binding result is “binds”.

Source of the values: patent US20240254229A1 (Molecular Partners, published 2024).
